In publication PMC5059642:
No constants are given. Whether binding was seen depends on the method and setting. Binding seen in cells or lysates may run through a third protein. Here binding means that the protein was enriched with, or labelled near, the bait; the list need not be complete. Tags and fused reporters may be left off the sequences shown.

Amino acid sequences for entries named in this document (tags omitted).
UniProt P0DMV8: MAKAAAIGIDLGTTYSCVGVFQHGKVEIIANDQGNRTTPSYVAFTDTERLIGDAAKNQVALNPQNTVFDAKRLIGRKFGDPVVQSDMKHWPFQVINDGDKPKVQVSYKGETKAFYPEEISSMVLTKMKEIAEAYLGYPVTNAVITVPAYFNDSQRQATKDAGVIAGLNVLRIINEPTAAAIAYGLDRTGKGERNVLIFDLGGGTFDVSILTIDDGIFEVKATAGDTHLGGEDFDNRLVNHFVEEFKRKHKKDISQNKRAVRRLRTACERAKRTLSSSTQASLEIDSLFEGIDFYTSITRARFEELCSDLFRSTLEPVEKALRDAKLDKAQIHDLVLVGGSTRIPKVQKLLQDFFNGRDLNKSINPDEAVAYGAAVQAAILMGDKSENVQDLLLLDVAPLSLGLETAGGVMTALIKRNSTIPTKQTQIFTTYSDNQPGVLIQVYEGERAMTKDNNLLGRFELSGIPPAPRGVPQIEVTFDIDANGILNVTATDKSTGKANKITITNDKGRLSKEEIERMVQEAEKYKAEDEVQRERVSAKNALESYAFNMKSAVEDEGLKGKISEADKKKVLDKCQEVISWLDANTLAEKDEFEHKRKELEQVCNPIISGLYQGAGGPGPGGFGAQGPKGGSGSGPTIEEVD

Molecular target: T1, FLAG-HA tagged ARD1 (human) (UniProt P41227)
T1 sequence: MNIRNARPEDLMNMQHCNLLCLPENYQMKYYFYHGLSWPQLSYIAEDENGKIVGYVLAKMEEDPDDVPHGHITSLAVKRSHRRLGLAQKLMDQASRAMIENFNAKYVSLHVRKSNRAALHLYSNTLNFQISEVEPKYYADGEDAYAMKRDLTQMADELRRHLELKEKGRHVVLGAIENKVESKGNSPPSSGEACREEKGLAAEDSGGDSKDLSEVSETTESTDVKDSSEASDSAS
Assay: affinity purification with mass spectrometry; FLAG-HA tagged ARD1 in HEK293T; anti-M2 resin, elution by 3xFLAG peptide, second precipitation with anti-HA antibody; SDS-PAGE and silver staining

binding: binds
Substance: Hsp70 (Hsp72/HSPA1A), endogenous (from UniProt P0DMV8 1-641)
